Test results reported in PubChem BioAssay AID624297 (National Center for Advancing Translational Sciences (NCATS), 2012).
Hit rate of the full screen: of about 340,000 compounds, about 6,200 (1.8%) were called active. The shares of active, inactive and inconclusive entries below differ from those in the screen. The call rests on the fitted dose curve; in most records, active means well fitted activation curve with a large enough effect; inconclusive means small, poorly fitted or top-dose-only effect; inactive means no such curve, though single readings can be large or run the other way. Where the call is inconclusive, the potency comes from a doubtful curve fit.

Assay: A quantitative high throughput screen for small molecules that induce DNA re-replication in SW480 colon adenocarcinoma cells. Further: nearly all actives have a fitted effect of over 55% in size. On re-replication activation: % of control where 0% means no effect.
Conditions: Hoechst DNA content imaging, 48 h; re-replication activation: at 46.1 µM (top of the series) unless noted
Summary of the method: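 First, 250 cells per well were seeded. Next, compound or vehicle (23 nL) was pinned in, plates sat 48 hr at 37 C. Finally Hoechst was added for 40 min before fluorescence scanning.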
Potency means the concentration at half of the fitted maximal effect.

Question: Which Potency does the source give for `CN(Cc1ccccc1)C(=O)C1CCC(CNS(=O)(=O)c2cccc3cccnc23)CC1` (stereo not given) here?
Answer: inconclusive: 29.1 µM [activator, single point]

Question: For `CCOc1ccccc1NC(=O)NCCN1CCCCC1`, which “re-replication activation” value is on record?
Answer: inactive: 4.64%

Question: For `COc1ccc(CN2CCN(Cc3c[nH]c4ccccc34)CC2CCO)c(F)c1` (stereo not given), which “re-replication activation” value is on record?
Answer: inactive: 1.75%

Question: For `O=c1cc(Cc2ccc([N+](=O)[O-])cc2)[nH]c(=O)[nH]1`, which “re-replication activation” value is on record?
Answer: inactive: -3.88%

Question: Which Potency does the source give for `COc1ccc(COC(=O)N/N=C(\C)CC(=O)Nc2c(C)cc(C)cc2C)cc1` here?
Answer: inconclusive: 23.1 µM [activator, partial curve, poor fit]

Question: For `OC1CCN(c2c3c(nc4cc(-c5ccc(F)cc5)nn24)CCC3)CC1`, which “re-replication activation” value is on record?
Answer: inactive: -7.9%

Question: With `CCCN1CCC(=O)N([C@H](COc2ccccc2)Cc2ccccc2)CC1` as the molecule, how does the Potency read?
Answer: inconclusive: 2.06 µM [activator, partial curve, poor fit]

Question: Which Potency does the source give for `COc1ccccc1C(=O)Nc1nnc(S(=O)(=O)N(C)Cc2ccccc2)s1` here?
Answer: inconclusive: 9.2 µM [activator, partial curve, poor fit]

Question: Which Potency does the source give for `O=C1CN(CC(=O)Nc2cccc(Cl)c2Cl)c2ccccc2N1` here?
Answer: inconclusive: 29.1 µM [activator, single point]

Question: Which Potency does the source give for `Cc1ccc(C(=O)NC2CCCCNC2=O)cc1` (stereo not given) here?
Answer: inconclusive: 0.461 µM [activator, full curve, poor fit]

Question: Which “re-replication activation” value does the source give for `Cc1cc(C=C2C(=O)c3ccccc3C2=O)c(C)n1-c1cccc(C(=O)O)c1` here?
Answer: inactive: 3.72%

Question: Which Potency does the source give for `CCn1cc(CN2CCCC(C(=O)c3ccc(-c4ccccc4)c(F)c3)C2)cn1` (stereo not given) here?
Answer: inconclusive: 7.31 µM [activator, partial curve, poor fit]

Question: Which “re-replication activation” value does the source give for `COc1ccc(N2CCN(C(=O)c3cccc(S(=O)(=O)N4CCCc5ccccc54)c3)CC2)cc1` here?
Answer: inactive: -3.75%

Question: For `COC(=O)c1cc(=O)n(Cc2cccs2)c(=Nc2ccc(F)cc2)s1`, which “re-replication activation” value is on record?
Answer: inactive: -9.14%

Question: Which Potency does the source give for `COc1cccc(CN(C)C(=O)c2cc(COc3ccc(-n4cncn4)cc3)on2)c1` here?
Answer: inconclusive: 20.6 µM [activator, single point]

Question: Which Potency does the source give for `COc1ccc(NC(=O)NC[C@@H]2CC[C@@H](Cc3ccc(-c4ccccc4)cc3)O2)cc1` here?
Answer: inconclusive: 9.2 µM [activator, single point]

Question: Which “re-replication activation” value does the source give for `CCc1cc(=O)oc2cc(C)c(CN3CCCCC3)c(O)c12` here?
Answer: inactive: -5.17%

Question: With `COc1ccc(NC(=O)c2ccc(NC3CC(=O)N(c4ccc(C)cc4C)C3=O)cc2)cc1` (stereo not given) as the molecule, how does the Potency read?
Answer: inconclusive: 18.4 µM [activator, partial curve, poor fit]

Question: With `O=C(CCl)c1ccc2[nH]c(=O)oc2c1` as the molecule, how does the Potency read?
Answer: inconclusive: 29.1 µM [activator, single point]

Question: For `Cc1cc(C)c(NC(=O)COC(=O)c2cc([N+](=O)[O-])ccc2N2CCOCC2)c(C)c1`, which Potency is on record?
Answer: inconclusive: 29.1 µM [activator, single point]

Question: With `COc1ccc(-c2cc(CCC(=O)N3CCN(c4cc(C)ccc4C)CC3)[nH]n2)cc1` as the molecule, how does the “re-replication activation” value read?
Answer: inactive: -2.75%

Question: Which Potency does the source give for `Brc1ccc2[nH]c3c(N4CCc5ccccc5C4)ncnc3c2c1` here?
Answer: inconclusive: 18.4 µM [activator, partial curve, poor fit]

Question: With `Cc1nc(/N=C(\N)NC(=O)N2c3ccccc3Sc3ccccc32)nc2ccccc12` as the molecule, how does the “re-replication activation” value read?
Answer: inactive: -1.7%

Question: Which Potency does the source give for `CC1CCN(CC(O)COc2ccc(-c3ccccc3)cc2)CC1` (stereo not given) here?
Answer: inconclusive: 29.1 µM [activator, single point]

Question: Which “re-replication activation” value does the source give for `O=C(O)CSCC(=O)N1CCN(Cc2ccc3c(c2)OCO3)CC1` here?
Answer: inactive: -6.01%

Question: With `CC(=O)CCS(=O)(=O)c1ccc(Oc2ccc(S(=O)(=O)CCC(C)=O)cc2)cc1` as the molecule, how does the Potency read?
Answer: inconclusive: 3.26 µM [activator, full curve, poor fit]

Question: For `O=C(/C=C/c1cccc(Cl)c1)c1nc2ccccc2[nH]1`, which Potency is on record?
Answer: inconclusive: 6.51 µM [activator, full curve]

Question: For `CCOC(=O)c1cc(C(=O)OCC)c2ccccn2c1=O`, which Potency is on record?
Answer: inconclusive: 29.1 µM [activator, single point]

Question: With `CC(C)c1nnc(SCC(=O)NC2CCCC2)n1C` as the molecule, how does the “re-replication activation” value read?
Answer: inactive: -15.5%

Question: Which Potency does the source give for `CC1CC(C)CN(CCCNC(=O)CN2C(=O)c3cccnc3Oc3ccccc32)C1` (stereo not given) here?
Answer: inconclusive: 0.164 µM [activator, partial curve]

Question: With `CCOC(=O)c1[nH]c2ccccc2c1NC(=O)c1ccc(Br)o1` as the molecule, how does the “re-replication activation” value read?
Answer: inactive: -3.3%

Question: For `CCN1C(=NCCc2ccc(Br)cc2)N[C@@H](c2ccccc2)[C@H](C(=O)OC)[C@H]1C`, which “re-replication activation” value is on record?
Answer: inactive: 12.5%

Question: Which Potency does the source give for `N#C/C(=C\Nc1ccc2c(c1)OCCO2)c1nc(-c2ccccc2)cs1` here?
Answer: inconclusive: 9.2 µM [activator, single point]

Question: Which “re-replication activation” value does the source give for `C=CCOc1ccc(CC(=O)O)cc1Cl` here?
Answer: inactive: -5.19%

Question: Which “re-replication activation” value does the source give for `Cc1cc(N2CCOCC2)nc(SCC(=O)c2ccccc2)n1` here?
Answer: inactive: 1.57%

Question: With `CC(=O)N1CCN(C(=O)c2cc3c(s2)CCCC3)CC1` as the molecule, how does the “re-replication activation” value read?
Answer: inactive: -5.47%

Question: For `CCCn1ncc(C(=O)N(C)C2CCCN(Cc3ccccc3F)C2)c1C` (stereo not given), which “re-replication activation” value is on record?
Answer: inactive: 2.32%

Question: Which Potency does the source give for `Cc1ccc(NC(=O)CSCc2nc3c(nnn3Cc3ccc(F)cc3)c(=O)[nH]2)c(C)c1` here?
Answer: inconclusive: 0.103 µM [activator, full curve, poor fit]

Question: For `COc1cc(Nc2ccc(S(N)(=O)=O)cc2)c([N+](=O)[O-])nc1[N+](=O)[O-]`, which “re-replication activation” value is on record?
Answer: inactive: 7.46%

Question: For `CC(=O)C(C(c1ccccc1)c1c[nH]c2ccccc12)[N+](=O)[O-]` (stereo not given), which Potency is on record?
Answer: inconclusive: 14.6 µM [activator, partial curve, poor fit]

Question: With `Cc1ccc(C)n1-c1ccc(NC(=O)c2ccccc2)cc1` as the molecule, how does the Potency read?
Answer: inconclusive: 20.6 µM [activator, single point]

Question: Which Potency does the source give for `Cc1cccc(C)c1NC(=O)C(NC=O)c1ccccc1` (stereo not given) here?
Answer: inconclusive: 4.11 µM [activator, full curve, poor fit]

Question: For `CC1CCCN(C(=O)C(C)Sc2nc(-c3ccccc3)cc(C(F)(F)F)n2)C1` (stereo not given), which Potency is on record?
Answer: inconclusive: 29.1 µM [activator, partial curve, poor fit]

Question: Which Potency does the source give for `Cc1ccc(/C=C2/C(=O)N(c3ccccc3)C(=S)N2C)o1` here?
Answer: inconclusive: 29.1 µM [activator, single point]

Question: For `CC(=O)C[C@@H](O)CC(=O)[C@@H]1OC(=O)CCCCC/C=C/Cc2ccccc21`, which Potency is on record?
Answer: inconclusive: 6.51 µM [activator, single point]
